The source of these data is article PMC10163288.

This is one part of the list.

Sequences and labels used below:
B1: il2ra_site2_3nfp_sap_25_mot_HHH_b1_04612_000000086_0001_22_38_H_._50caaf2482b7f8739434db268ae8d019_0001_0001_0001500077_0000001_0_0001_af2pred_0001_af2pred (protein)
chain: SSSSDVEEEVKRLIEEAERLLEEGNPEEAKKVLLRAALLASEAGDYELFALIADLLEKILHSSSS
B2: il2ra_site1_3nfp_sap_20_mot_HHH_b1_01874_af2_000000226_0001_43_56_H_._HHH_b1_01564_af2_0001_0000600017_0000001_0_0001_af2pred_0001_af2pred_1_swapped (protein)
chain: SSSSDEELEELEERIRELIERALRHRDQELAKEALKLIEELARLGDPERAKELIQLLADKSSSSS
B3: il2ra_site2_2erj_normal_mot_ems_3hC_1315_af2_000000245_0001_45_63_H_._HHH_b1_03885_af2_0001_0000400020_0000001_0_af2pred_0001_1_af2pred_swapped (protein)
chain: SSSDEEERKRLAEEIVEQLVKEYNLSEEAEKELRLSAKSAVEAGADDTSIRDFLEELARRLSSSS
B4: il2ra_site2_2erj_normal_mot_HHH_b2_06005_000000006_0001_1_15_H_._HHH_b1_08540_af2_0001_0000400022_0000001_0 (protein)
chain: SSSDEEEKELQELLREAERLLEEGNPEEAEKVLRRAFELAYRLGDPRAASLIIELAHLVARSSSS
B5: il2ra_site1_3nfp_normal_mot_HHH_b2_02066_af2_000000034_0001_1_16_H_._56b2e862c5d7020fcb9d25388f5aedda_0001_0001_0000100010_0000001_0_af2pred_0001_af2pred_1 (protein)
chain: TTAERALELAKEDGSLKAVSSVAEAVARLRNDPELEERIRELAEKAKENPEVREELIELAEELLK
B6: il2ra_site1_3nfp_normal_mot_HHH_b2_07488_000000189_0001_1_17_H_._68f07a3d948acdba3ab012a854af3bd0_0001_af2_0002_0000200016_0000001_0 (protein)
chain: NADEFFAEVALESGIPPERVAERLLEAAKRLGIPPEELSERLEELARKLGDPRLQEVAELVEELG
B7: il2ra_site2_2erj_normal_mot_HHH_b2_05633_000000270_0001_38_52_H_._HHH_b1_01885_0001_0000200025_0000001_0 (protein)
chain: SSSSSDEQEIIEEFAELVAEIIEIRDEEEIRELLKRLEELAEEVNSPALRRYLEYLRRDLSSSSS
B8: il2ra_site2_3nfp_sap_7_mot_HHH_b2_05605_000000133_0001_1_20_H_._HHH_b2_05232_af2_0001_0000500021_0000001_0_0001 (protein)
chain: SSSSSEEVERLIEEAERALEEGNPEEAKKILKRAAQLAFELNDPELFFKVAELAYELAQRGSSSS
B9: il2ra_site1_3nfp_normal_mot_HHH_b1_01335_af2_000000105_0001_39_53_H_._HHH_b2_00121_0001_0000300013_0000001_0_af2pred_0001_1_af2pred_swapped (protein)
chain: SSSSSEEEVRRVLKEAKEAAEEGDHRRVDELIREALKLANENRDEEAHRLVRKFLEEAAKNSSSS
B10: il2ra_site2_2erj_sap_13_mot_HHH_b2_03493_000000046_0001_40_57_H_._HHH_b1_00791_0001_0000300020_0000001_0_0001 (protein)
chain: TQEDVHEALREMGVPPEVIELFIELFLLALRHGDPRLREVLEKADQALAEGDPEEAEELLEEVLK
B11: il2ra_site1_2b5i_normal_mot_HHH_b1_02271_000000068_0001_1_16_H_._HHH_b2_05772_0001_0000400026_0000001_0_af2pred_dldesign_0_af2pred (protein)
chain: SSSSSPELKRLVEEALRRAEAAKAAGRVREALEILNAAHKKADEADDEELSDELEAKAKELSSSS
B12: il2ra_site1_2b5i_normal_mot_HHH_b2_06963_af2_000000094_0001_1_18_H_._HHH_b1_06981_af2_0001_0000100007_0000001_0_af2pred_0001_af2pred (protein)
chain: SSSSDLEQEILELYHEASKLLRQGNHEEAKKLLEEALELAEELGDEKLFKLIKHFLEMLESSSSS
B13: il2ra_site2_2erj_sap_23_mot_HHH_b1_08185_000000106_0001_41_55_H_._HHH_b1_03164_af2_0001_0000900069_0000001_0_0001 (protein)
chain: SSSSSSEYQEEIEELIEEARRVSKEEAAALLIDAAHLAARNRDDEIAKEVRELFAELFRRSSSSS
B14: il2ra_site1_3nfp_sap_9_mot_HHH_b1_00630_af2_000000193_0001_42_55_H_._HHH_b1_08000_af2_0001_0000100001_0000001_0_0001_af2pred_0001_af2pred_1 (protein)
chain: DLQELLQEDAEHASKWAGVTSVHVEVENGHVTVTVEADNNLAKALLLLLREAARQAGLEVEITIE
B15: il2ra_site2_2erj_sap_28_mot_HHH_b2_01204_af2_000000051_0001_19_34_H_._702f76d1131dc6d24a5c6e797340565d_0001_1_0001_0000100001_0000001_0_0001 (protein)
chain: SSSSNEELRELYELANELLRLLQEGDEEEFEKVLEEAKELAKKLDSENAKEILRWLERQLSSSSS
B16: il2ra_site2_2erj_sap_28_mot_HHH_b1_03572_af2_000000164_0001_41_56_H_._HHH_b1_00072_0001_0000100006_0000001_0_0001_af2pred_0001_1_af2pred_swapped (protein)
chain: SSSSSSEAEELVERLVEELNLSEEEKELLEEVAKQLEESGYNEELAERWLRMIVEALEKNSSSSS
B17: il2ra_site2_2erj_sap_29_mot_HHH_b1_07741_000000192_0001_1_20_H_._HHH_b1_04486_af2_0001_0000200006_0000001_0_0001 (protein)
chain: SSSSSDLHELYELAVRIMHLLARGDEEEAKELIERVKELAEELDSDNAREIAEWLERTLKSSSSS
B18: il2ra_site1_1z92_sap_10_mot_HHH_b2_05172_af2_000000284_0001_1_18_H_._HHH_b1_05364_af2_0001_0000100005_0000001_1_0001 (protein)
chain: SSSSDAWERAVEFALESLRRALELGNERSAERLFEFVRRQAENAHDPELERRVRELYEELSSSSS
B19: il2ra_site1_1z92_normal_mot_375b43ffed9a9ee9461e8325e968149e_0001_1_af2_000000109_0001_54_65_H_._fda5df8c19bda1ddfcc41857df859eb0_0001_1_0001_0000200014_0000001 … (protein)
chain: SVEELLREALRLAGFPPQSVERLLESAEEAAGGDPKQVVKLVLLDLERSGLLPPEAKEVLEEAER
B20: il2ra_site1_1z92_normal_mot_9daacd37e3baa650618043516f9fc948_0001_af2_000000116_0001_36_50_H_._e577cf9893892e11dfbc93bbc029d3b7_0001_0001_0000200046_0000001_0_a … (protein)
chain: DEPDLRELAARLGIAPEDLERMLKFLTEKNKIPRDLAEQLLRLLLRRVLEGDPRARRELAELLEV
B21: il2ra_site2_3nfp_normal_mot_HHH_b1_06586_000000201_0001_1_18_H_._HHH_b1_04442_0001_0000500037_0000001_0 (protein)
chain: SSSSSDREEFRRAVKSALRLAKQISDPELLKDAIAWAEALALMLGDDELERLVEEVEEELSSSSS
B22: il2ra_site1_2b5i_sap_27_mot_2cbe48e66a1f39b3fed734b245ab0a04_0001_000000015_0001_17_31_H_._HHH_b1_01788_0001_0000400018_0000001_0_0001_af2pred_dldesign_0_af2pre … (protein)
chain: SSSSSDPEAMLAEAERLFEAGEPEKALELLEKAAEEVDAADDRELKKRLVRLYYRVKVLSSSSSS
B23: il2ra_site1_2b5i_sap_15_mot_HHH_b2_06557_000000199_0001_42_56_H_._HHH_b1_01573_af2_0001_0000400035_0000001_0_0001_af2pred_dldesign_0_af2pred (protein)
chain: SSSSSSDTKEALELFLKADELFKAGKEEEAKKALEEALKLAEKAKCKLCIKIITSALKEISSSSS
B24: il2ra_site1_3nfp_normal_mot_HHH_b1_02869_af2_000000018_0001_41_55_H_._HEEHE_2123_0001_0000700044_0000001_0 (protein)
chain: ELELDVEHLARALARAARVPKVEIEIENNRVTVTVEGDDEAARRALEAAEQFWRLLGYEVENEIE

The target in the test is il2ra, P01589. Nature of the test: yeast display titration.
Turning to B1, the “apparent Kd” value was “inactive: no binding seen”.

For the molecule B2, the “apparent Kd” value is “inactive: no binding seen”.

For B3, the “apparent Kd” value was “inactive: no binding seen”.

As for B4, the “apparent Kd” value was “inactive: no binding seen”.

Turning to B5, the “apparent Kd” value was “inactive: no binding seen”.

On to B6, for which the “apparent Kd” value was “inactive: no binding seen”.

In the case of B7, the “apparent Kd” value is “inactive: no binding seen”.

Take B8: the “apparent Kd” value was “inactive: no binding seen”.

Turning to B9, the “apparent Kd” value was “inactive: no binding seen”.

For the molecule B10, the “apparent Kd” value was “inactive: no binding seen”.

B11: the “apparent Kd” value was “inactive: no binding seen”.

With B12, the “apparent Kd” value was “inactive: no binding seen”.

For B13, the “apparent Kd” value was “inactive: no binding seen”.

Turning to B14, the “apparent Kd” value was “inactive: no binding seen”.

In the case of B15, the “apparent Kd” value was “inactive: no binding seen”.

As to B16, the “apparent Kd” value was “inactive: no binding seen”.

B17: the “apparent Kd” value was “inactive: no binding seen”.

Consider B18, for which the “apparent Kd” value was “inactive: no binding seen”.

For B19, the “apparent Kd” value is “inactive: no binding seen”.

As to B20, the “apparent Kd” value was “inactive: no binding seen”.

Turning to B21, the “apparent Kd” value was “inactive: no binding seen”.

B22: the “apparent Kd” value was “inactive: no binding seen”.

With B23, the “apparent Kd” value is “inactive: no binding seen”.

As to B24, the “apparent Kd” value was “inactive: no binding seen”.
